This note sets out measurements from publication doi:10.1101/2024.05.03.592456.

Amino acid sequences for entries named in this document (tags omitted).
UniProt P21926: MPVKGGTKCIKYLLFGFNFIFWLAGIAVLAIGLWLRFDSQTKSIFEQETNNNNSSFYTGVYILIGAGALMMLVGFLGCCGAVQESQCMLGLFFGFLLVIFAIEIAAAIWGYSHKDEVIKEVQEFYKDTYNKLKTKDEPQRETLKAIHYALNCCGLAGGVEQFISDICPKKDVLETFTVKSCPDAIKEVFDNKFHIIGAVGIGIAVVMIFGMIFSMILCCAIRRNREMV

Results are given in words; binding and its absence hold for the method and conditions named. Binding seen in cells or lysates may run through a third protein. Tags and fused reporters may be left off the sequences shown.

This assay addresses T1, ILDR2-myc (UniProt Q71H61).
T1 sequence: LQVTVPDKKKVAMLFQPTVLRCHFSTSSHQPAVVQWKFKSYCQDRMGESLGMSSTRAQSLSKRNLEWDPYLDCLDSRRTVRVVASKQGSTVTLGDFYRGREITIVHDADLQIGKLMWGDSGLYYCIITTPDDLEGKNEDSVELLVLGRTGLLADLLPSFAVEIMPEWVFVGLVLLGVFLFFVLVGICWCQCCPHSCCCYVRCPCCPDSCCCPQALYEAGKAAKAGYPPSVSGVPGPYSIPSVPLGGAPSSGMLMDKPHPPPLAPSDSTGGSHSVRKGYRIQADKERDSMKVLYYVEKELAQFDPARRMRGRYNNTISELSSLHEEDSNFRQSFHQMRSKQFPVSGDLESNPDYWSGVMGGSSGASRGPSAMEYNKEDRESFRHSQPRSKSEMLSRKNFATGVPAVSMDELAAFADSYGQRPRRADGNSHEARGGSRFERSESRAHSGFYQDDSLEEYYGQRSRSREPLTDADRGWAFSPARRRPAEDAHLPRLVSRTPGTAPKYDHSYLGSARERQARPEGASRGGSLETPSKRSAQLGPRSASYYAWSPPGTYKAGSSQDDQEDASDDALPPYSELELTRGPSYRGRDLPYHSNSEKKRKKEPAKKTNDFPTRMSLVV
Put plainly: co-IP.

On to CD9 (from UniProt P21926 1-228), for which the binding result is recorded as “no binding”.
